System: CT-DNA
Assay: Spectrofluorimetric titration with CT-DNA (Stern-Volmer and binding constants)
Set-up: species or system calf
Details: from lg(F0/F-1) vs lg[DNA]; Tris-HCl buffer pH 7.2
Description: The DNA binding properties of compounds 8a–8j were evaluated based on their affinity or interaction with CT-DNA, measured with fluorescence spectrometric titration.
The calibration curve for determination of DNA was constructed by adding different proportion of DNA to a 2.0 × 10^−3 M compound 8j solution (pH = 7.2 Tris-HCl buffer). […] [Q] is the concentration of quencher. KSV is the Stern-Volmer constant and KQ is the bimolecular quenching rate constant. τ0 is the lifetime of the fluorophore in the absence of quencher and for most biomolecules τ0 is about 10^−8 s. The Stern-Volmer constant, KSV, for compound 8j has been determined from the plot of F0/F-1 vs. [DNA] (see Figure 2) and found to be 5.11 × 10^2 M^−1.
When small molecules binding independently to a set of equivalent sites on a macromolecule, the equilibrium between free and bound molecules is given by the equation [28]: (2) lg (F0/F-1) = lgKb + nlg[Q] where Kb and n are the binding constant and the number of binding sites, respectively, which could be got from the curve of lg(F0/F-1) vs. lg[Q]. The plot of lg(F0/F-1) vs. lg[DNA] has been shown in Figure 3 for compound 8j and indicates a simple binding process for the compound.
All fluorescence experiments were carried out on a Perkin-Elmer LS50B luminescence spectrometer. Fluorescence spectra were measured at rt using quartz cells of 1cm path. To the solutions of the drugs (2.0 × 10^−3 M) in 2.5 mL Tris-HCl buffer (pH = 7.2) were added aliquots of CT-DNA (2.0 × 10^−3 M) solution containing drugs (2.0 × 10^−3 M) in 2.5 mL Tris-HCl buffer (pH = 7.2). This operation ensured that the concentration of CT-DNA increased gradually from 0 to 360 µM, while the concentrations of drugs were kept constant. The mixing was achieved by stirring for 10min. Then, the corresponding fluorescence spectra were measured (ex 325 nm, ex/em 1.5 nm/1.5 nm). Binding constants were derived from the modified.

## Cc1cc(=O)oc2cc(O)ccc12 [Compound 2, 7-Hydroxy-4-methyl-2H-chromen-2-one, reference compound]
  n (number of binding sites): 1.00

## CCOP(=O)(OCC)C(NC(=O)CCOc1ccc2c(C)cc(=O)oc2c1)c1ccccc1 (centres unmarked) [Compound 8a, Diethyl(3-(4-methyl-2-oxo-2H-chromen-7-yloxy)propanamido)(phenyl)methylphosphonate]
  n (number of binding sites): 0.96

## CCOP(=O)(OCC)C(NC(=O)CCOc1ccc2c(C)cc(=O)oc2c1)c1ccccc1F (centres unmarked) [Compound 8b, Diethyl(3-(4-methyl-2-oxo-2H-chromen-7-yloxy)propanamido)(2-fluorophenyl)methylphospho-nate]
  n (number of binding sites): 0.83

## CCOP(=O)(OCC)C(NC(=O)CCOc1ccc2c(C)cc(=O)oc2c1)c1ccccc1Cl (centres unmarked) [Compound 8c, Diethyl(3-(4-methyl-2-oxo-2H-chromen-7-yloxy)propanamido)(2-chlorophenyl)methylphospho-nate]
  n (number of binding sites): 0.83

## CCOP(=O)(OCC)C(NC(=O)CCOc1ccc2c(C)cc(=O)oc2c1)c1ccc(Cl)cc1 (centres unmarked) [Compound 8d, Diethyl(3-(4-methyl-2-oxo-2H-chromen-7-yloxy)propanamido)(4-chlorophenyl)methylphospho-nate]
  n (number of binding sites): 1.05

## CCOP(=O)(OCC)C(NC(=O)CCOc1ccc2c(C)cc(=O)oc2c1)c1ccccc1Br (centres unmarked) [Compound 8e, Diethyl(3-(4-methyl-2-oxo-2H-chromen-7-yloxy)propanamido)(2-bromophenyl)methylphospho-nate]
  n (number of binding sites): 0.84

## CCOP(=O)(OCC)C(NC(=O)CCOc1ccc2c(C)cc(=O)oc2c1)c1cccc(Br)c1 (centres unmarked) [Compound 8f, Diethyl(3-(4-methyl-2-oxo-2H-chromen-7-yloxy)propanamido)(3-bromophenyl)methylphospho-nate]
  n (number of binding sites): 1.42

## CCOP(=O)(OCC)C(NC(=O)CCOc1ccc2c(C)cc(=O)oc2c1)c1ccc(Br)cc1 (centres unmarked) [Compound 8g, Diethyl(3-(4-methyl-2-oxo-2H-chromen-7-yloxy)propanamido)(4-bromophenyl)methylphosph-onate]
  n (number of binding sites): 1.04

## CCOP(=O)(OCC)C(NC(=O)CCOc1ccc2c(C)cc(=O)oc2c1)c1ccccc1OC (centres unmarked) [Compound 8h, Diethyl(3-(4-methyl-2-oxo-2H-chromen-7-yloxy)propanamido)(2-methoxyphenyl)methylphos-phonate]
  n (number of binding sites): 1.95

## CCOP(=O)(OCC)C(NC(=O)CCOc1ccc2c(C)cc(=O)oc2c1)c1ccc2ccccc2c1 (centres unmarked) [Compound 8i, Diethyl(3-(4-methyl-2-oxo-2H-chromen-7-yloxy)propanamido)(naphthalen-2-yl)methylphosph-onate]
  n (number of binding sites): 0.96

## CCOP(=O)(OCC)C(C)(NC(=O)CCOc1ccc2c(C)cc(=O)oc2c1)c1ccccc1 (centres unmarked) [Compound 8j, Diethyl 1-(3-(4-methyl-2-oxo-2H-chromen-7-yloxy)propanamido)-1-phenylethylphosphonate]
  n (number of binding sites): 1.43

— article PMC6331810, “Novel Coumarin-Containing Aminophosphonatesas Antitumor Agent: Synthesis, Cytotoxicity, DNA-Binding and Apoptosis Evaluation” (Molecules, 2015)
